According to publication PMC6465352, “Citrate synthase from Synechocystis is a distinct class of bacterial citrate synthase” (Scientific Reports, 2019):

Target: T1, SyCS (Synechocystis sp. PCC 6803, UniProt Q59977)
T1 construct: gene gltA; full-length gltA (synthesized) in pGEX5X-1, GST-tagged, tag not reported cut; expressed in E. coli DH5alpha, glutathione-Sepharose purified
T1 sequence (Q59977 1-397): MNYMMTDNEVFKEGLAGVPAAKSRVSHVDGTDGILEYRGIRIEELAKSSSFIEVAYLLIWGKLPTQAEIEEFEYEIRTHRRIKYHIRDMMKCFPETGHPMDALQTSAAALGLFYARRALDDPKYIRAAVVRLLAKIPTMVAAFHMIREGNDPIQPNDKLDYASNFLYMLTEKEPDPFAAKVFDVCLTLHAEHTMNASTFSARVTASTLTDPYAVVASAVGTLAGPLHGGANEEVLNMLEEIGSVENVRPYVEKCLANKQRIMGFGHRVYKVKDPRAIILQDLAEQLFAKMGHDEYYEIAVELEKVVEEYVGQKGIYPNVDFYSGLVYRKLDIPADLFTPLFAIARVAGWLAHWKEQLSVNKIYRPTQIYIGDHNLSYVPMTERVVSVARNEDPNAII
Test: DTNB assay at A412, residual activity
Type: biochemical
Details: read-out: % activity at 5 mM

activity at 5000 µM: 1%
SMILES: O=C(O)CC(O)(CC(=O)O)C(=O)O [citrate]
